The campaign covered roughly 140,000 compounds. About 4,300 (3.1%) were called active. Inconclusive results, whose numbers are uncertain, are shown with a selection of clear calls.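 Rule for the calls: active = readout at or below -70, meaning at least 70% loss of cells showing the perinucleolar compartment, a nuclear body marking cancer cells; inconclusive = readout between -30 and a set limit; inactive = the rest.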
Assay: High Content Assay for Compounds that inhibit the Assembly of the Perinucleolar Compartment;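 note: plate controls were DMSO wells for no effect and camptothecin positive control wells for full effect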
Conditions: PC3M PTB-GFP, PNC prevalence imaging, 16 h; at 10 µM; active compounds read low
Summary of the method: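 Read-out is percentage of cells bearing a perinucleolar compartment, from automated 20x imaging of fixed, Hoechst-stained PC3M PTB-GFP cells. Cells were seeded 4 h, then exposed 16 h to compound (23 nl of library stock) in duplicate plates.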

Compound | activity change (PNC), negative = inhibition
FC(F)(F)c1cc(-c2ccco2)nc(N2CCN(Cc3ccccc3)CC2)n1 | inactive: 69.8%
Cc1ccccc1OCC(=O)NCCC1=CCCCC1 | inconclusive: -49%
COc1ccccc1C(c1nnnn1C(C)(C)C)N1CCCc2ccccc21 (configuration not stated) | inconclusive: -41.5%
CCOc1cc(N2CCOCC2)c(OCC)cc1NC(=O)COC(=O)c1cc(C)oc1C | inactive: -4.4%
O=C(Oc1c(CN2CCOCC2)cc(Cl)c2cccnc12)c1ccc(F)cc1 | inconclusive: -36.3%
CCN1CCN(c2cc(C)c3cc(NC(=O)c4cnccn4)ccc3n2)CC1 | inconclusive: -58.1%
COc1ccc(NS(=O)(=O)c2ccc(NC(=O)C3CCCO3)cc2)cc1 (configuration not stated) | inconclusive: -44.9%
Cc1cc(C)cc(NS(=O)(=O)c2ccc3oc(=O)ccc3c2)c1 | inactive: 8.89%
COC(=O)c1ccccc1NC(=O)CN1CCN(C23CC4CC(CC(C4)C2)C3)CC1 | inactive: -1.39%
CCOC(=O)c1c(C)[nH]c(C)c1C(=O)CN1C(=O)NC(CC(C)C)C1=O (configuration not stated) | active: -94.3%
COC(=O)COc1ccc(S(=O)(=O)N2CCc3ccccc3C2)cc1 | inconclusive: -51.1%
CCCCOc1ccccc1C1CC(=O)NC2=C1C(=O)CCC2 (configuration not stated) | inconclusive: -60.4%
COc1ccc(N2CCN(S(=O)(=O)c3cccs3)CC2)cc1 | inconclusive: -31.4%
O=C(NS(=O)(=O)c1ccccc1)c1ccccc1F | active: -122%
S=C1NNC2(NN1)C1CC3CC(C1)CC2C3 | active: -100%
O/N=C/c1ccc(-c2cc(Cl)ccc2Cl)o1 | inactive: 6.96%
O=C(NCCCN1CCN(CCCNC(=O)c2cc([N+](=O)[O-])ccc2Cl)CC1)c1cc([N+](=O)[O-])ccc1Cl | inconclusive: -40.8%
Cc1ccccc1Oc1cc(-n2ncc(Cl)c(Cl)c2=O)ncn1 | active: -86.5%
CCOc1ccc(NC2=C(OC)C(=O)c3ccccc3C2=O)cc1 | inactive: 9.32%

Compound | activity change (PNC), negative = inhibition
Cc1ccc(S(=O)(=O)/N=C(\N)Nc2nc(C)c3cc(C)c(C)cc3n2)cc1 | inconclusive: -39.3%
COC(=O)c1cccc(NS(=O)(=O)c2ccc(OC)cc2)c1C | inconclusive: -41.3%
CCSc1ncccc1-c1nc2ccccc2[nH]1 | inconclusive: -70.1%
CC(=O)N1N=C(c2ccccc2)CC1c1cn(Cc2ccccc2)c2ccccc12 (configuration not stated) | inconclusive: -40.6%
Cc1ccccc1OCCSc1nnc(-c2cccnc2)n1N | inconclusive: -40.3%
Cc1ccc2nc(N/N=C/c3ccccc3F)nc(-c3ccccc3)c2c1 | inconclusive: -46.7%
CC1=C(C(=O)OC(C)C)C(c2cncc(-c3ccc(F)cc3)c2)C(C#N)=C(N)O1 (configuration not stated) | inactive: -26.5%
CN=c1scc(C)n1/N=C/c1ccc(O)cc1 | inactive: 14.7%
O=C(Nc1cccnc1)c1cnn2c(C(F)F)cc(C3CC3)nc12 | inconclusive: -33%
Clc1c(CSc2nc3ccccc3o2)nc2sccn12 | inactive: -26.4%
Cc1ccc(S(=O)(=O)N(Cc2ccccc2)Cc2ccco2)cc1 | inconclusive: -50.7%
CC1Cc2ccccc2N1C(=O)COC(=O)c1c2c(nc3ccccc13)CCCCC2 (configuration not stated) | inconclusive: -60.6%
CCc1nnc(NC(=O)CSc2nnc(COc3cccc(C)c3)o2)s1 | inconclusive: -40.6%
CCc1ccc(NC(=O)C(C)Nc2ccc(S(=O)(=O)NC(C)=O)cc2)cc1 (configuration not stated) | inactive: 0.143%
c1ccc(CC2CCN(Cc3nc(-c4ccccc4)no3)CC2)cc1 | inconclusive: -72.8%
COc1ccc([N+](=O)[O-])cc1NC(=O)C(C)OC(=O)/C=C/c1ccco1 (configuration not stated) | inactive: 71.7%
CCOC(=O)CSC1=Nc2ccccc2C2=NC(CC(=O)NCc3ccc4c(c3)OCO4)C(=O)N12 (configuration not stated) | inconclusive: -36.8%
Cc1ccc(OCC(=O)NNC(=O)C(=O)N2CCCC2)c(C)c1 | inconclusive: -79.3%
CC1(C)Cc2[nH]c(=S)c(C#N)cc2CO1 | inconclusive: -63.8%

Compound | activity change (PNC), negative = inhibition
CN1CCCN(C(c2ccccc2)c2ccc(Cl)cc2)CC1 (configuration not stated) | inconclusive: -36.8%
CCCCCn1c(NC(=O)c2ccco2)c(S(=O)(=O)c2ccc(C)cc2)c2nc3ccccc3nc21 | inactive: 2.93%
O=C1CCCCC1c1cccc2ccccc12 (configuration not stated) | inactive: -10.8%
O=C(COC(=O)CCCNC(=O)c1ccc(Cl)cc1)Nc1ccc(Br)cc1 | inconclusive: -32%
CC(C)(C)n1nc2c(c1NC(=O)COc1ccc3ccccc3c1)CS(=O)(=O)C2 | inconclusive: -34.5%
CCN1CCN(c2ncc3c(n2)CC(c2cc(OC)c(OC)c(OC)c2)CC3=O)CC1 (configuration not stated) | inconclusive: -40.8%
CN1CCc2c(sc3c2C(=O)NC(c2ccccn2)N3)C1 (configuration not stated) | inconclusive: -61%
Cc1ccc(NC2c3ncccc3C(=O)N2C2CCCCC2)cc1C (configuration not stated) | inconclusive: -30.3%
O=C(Cc1ccccc1)N1CCC(c2nc(-c3ccc(F)cc3)no2)CC1 | inconclusive: -32.5%
COCCn1nnnc1CN(CCc1ccc(OC)c(OC)c1)Cc1cc2ccc(C)cc2[nH]c1=O | inactive: 18.6%
C=CCn1c(SCc2c(C)noc2C)nc2sc3c(c2c1=O)CCC(C)C3 (configuration not stated) | inactive: -26.1%
CCN(C(=O)CN1CCOCC1)C1(C)C(=O)c2ccccc2C1=O | inconclusive: -50.2%
O=C1CN(S(=O)(=O)c2ccc(F)cc2)CC(=O)N1CCc1ccccc1 | active: -100%
CCn1c(O)c(C=Nc2ccccc2)oc1=S | active: -93.7%
CCCCCCn1c(N2CCC(C(N)=O)CC2)nc2c1c(=O)n(C)c(=O)n2C | inconclusive: -33.8%
CCCCn1c(=O)c(C(=O)c2ccccc2)nc2ccccc21 | inconclusive: -37.3%
NS(=O)(=O)c1ccc(N/C=C\C(=O)c2cccc3ccccc23)cc1 | inconclusive: -31.2%
CCOC(=O)c1sc(NC(=O)COC(=O)Cn2cnc3ccccc32)c(C(=O)OCC)c1C | active: -96.8%
CC(/C=N/n1c(-c2cc(C)[nH]n2)n[nH]c1=S)=C\c1ccccc1 | inactive: -22.2%

From PubChem BioAssay AID2417 (National Center for Advancing Translational Sciences (NCATS), 2010)
